Test results as given in US11661583B2, “Drug discovery platform for Duchenne cardiomyopathy” (University of Washington, priority 2015, dated 2023).
Where a name gives a salt, the structure may show the parent alone.

Tested on: dystrophin deficient cardiomyocytes
Assay: High-throughput hypotonic stress cell viability (intracellular ATP) screen
Settings: 384-well; 18 hours compound incubation, then 30 minutes at 12.5% normal osmolarity; CELLTITER-GLO; vs average of DMSO control wells; tested at 10^-8 to 10^-5 M, concentration not given

| SMILES | Average of % viability [%] |
| --- | --- |
| CCCCc1oc2ccccc2c1C(=O)c1cc(I)c(OCCN(CC)CC)c(I)c1 [AMIODARONE HYDROCHLORIDE] | 168.14 ± 8.45 |
| CC(C)NCC(O)COc1ccc(CC(N)=O)cc1 (centres unmarked) [ATENOLOL] | 171.27 ± 1.77 |
